At least one structure is not confirmed: it was looked up by name or label, or the drawing left a doubt.
Test system: sweet cherry cv ‘Bing’ on ‘Gisela® 1’ rootstock
Test: Experiment 1: limb trial of PCa and GAs alone or in combination, applied 30 days after anthesis
Type: in vivo, sweet cherry (Prunus avium)
Details: FIG. 7; Ctifl scale green to Ctifl 7; applied at 30 days after anthesis
Method: A limb trial was conducted to evaluate effects of bioactive gibberellins (GA), prohexadione-calcium (PCa), or combinations applied before harvest on fruit quality of sweet cherry. The most efficacious treatments were utilized in a larger scale trial to investigate their effects on the whole tree scale and postharvest characteristics of fruit. Twelve-year-old sweet cherry cv ‘Bing’ on ‘Gisela® 1’ rootstock was selected for both experiments and trained to a central leader architecture. Both trials were carried out at Washington State University Roza farm, Prosser, Wash., USA (N 46.2°, W 119.7°).
Three limbs with uniform vigor were selected from each of 10 trees. […]
Twenty fruit per treatment were randomly selected and flagged for monitoring fruit growth by measuring fruit equatorial diameter and height weekly after treatment. All current-season shoots on treated limbs were measured weekly to investigate treatment effects on shoot growth. Harvest timing was determined as the day when the majority of fruit had achieved commercial maturity, based on exocarp color. […] Floral bud density on the treated limbs was assessed by counting all spurs and the number of reproductive buds per spur.
All fruit from each limb in Experiment 1 and sub-samples from Experiment 2 were weighed individually and fruit size distribution was calculated according to fruit weight. […]

## C=C1C[C@]23C[C@@]1(O)CC[C@H]2[C@@]12C=C[C@H](O)[C@@](C)(C(=O)O1)[C@H]2[C@@H]3C(=O)O [GA3, gibberellin A3]
  fruit color distribution range: Ctifl 2 to Ctifl 5

— patent publication US8680014B2, “Methods for improving fruit production and fruit quality” (Washington State University Research Foundation, priority 2010, dated 2014)
